Test results taken from paper PMC10713595.
Results are given in words; binding and its absence hold for the method and conditions named. Binding seen in cells or lysates may run through a third protein. Some entries that bind do so weakly or less than the wild type. For some assays here: Sequences can lack the tags named with a protein.

By UniProt entry, the sequences of proteins in these tests, tags left out.
UniProt P31749: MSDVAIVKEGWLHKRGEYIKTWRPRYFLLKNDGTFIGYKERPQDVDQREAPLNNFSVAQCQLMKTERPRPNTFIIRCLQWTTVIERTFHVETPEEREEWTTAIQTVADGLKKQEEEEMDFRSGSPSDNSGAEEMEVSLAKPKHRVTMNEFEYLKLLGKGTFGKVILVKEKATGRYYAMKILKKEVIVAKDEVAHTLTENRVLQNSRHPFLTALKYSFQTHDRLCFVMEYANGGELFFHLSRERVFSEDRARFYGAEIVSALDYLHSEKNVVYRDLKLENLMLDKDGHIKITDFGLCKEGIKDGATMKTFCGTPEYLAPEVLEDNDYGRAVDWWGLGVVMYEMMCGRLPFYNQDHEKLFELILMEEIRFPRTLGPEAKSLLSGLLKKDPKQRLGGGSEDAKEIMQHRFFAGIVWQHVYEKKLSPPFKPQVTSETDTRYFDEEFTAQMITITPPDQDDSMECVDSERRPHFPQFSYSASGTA

How the values were obtained:
[1] = molecular target: T1, endogenous Programmed cell death 4 (PDCD4) (human (endogenous in HCT116 and HEK293)) (UniProt Q53EL6); experiment: co-IP; endogenous proteins; IP lysis buffer (25 mM Tris pH 7.6, 150 mM NaCl, 1% Nonidet P-40, 1 mM EDTA), antibody 4 h, protein A/G agarose overnight, washed thrice with PBS, western blot; HCT116 also under serum starvation or 2DG (5 mM) and oligomycin (2.5 uM) for four hours; HEK293 Atg7-WT and Atg7-KO
T1 sequence: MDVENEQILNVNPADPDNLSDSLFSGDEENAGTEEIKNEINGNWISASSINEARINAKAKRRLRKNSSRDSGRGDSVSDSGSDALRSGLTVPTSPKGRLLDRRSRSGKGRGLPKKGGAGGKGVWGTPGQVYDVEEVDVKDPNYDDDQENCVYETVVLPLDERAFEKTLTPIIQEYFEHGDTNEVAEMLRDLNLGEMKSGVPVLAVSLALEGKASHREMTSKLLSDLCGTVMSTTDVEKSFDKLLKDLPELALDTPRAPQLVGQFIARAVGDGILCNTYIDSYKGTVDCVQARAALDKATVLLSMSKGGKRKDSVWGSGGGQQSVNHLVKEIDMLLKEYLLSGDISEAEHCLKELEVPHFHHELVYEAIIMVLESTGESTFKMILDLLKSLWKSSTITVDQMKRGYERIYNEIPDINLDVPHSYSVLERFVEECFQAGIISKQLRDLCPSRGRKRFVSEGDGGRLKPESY

[2] = molecular target: T2, 3*Flag-PDCD4 expressed in HEK293 cells (UniProt Q53EL6); experiment: co-IP; HEK293 or HEK293 Atg7-KO cells transfected with GFP-Atg7, GFP-Atg7 D476AQ398A or control vector and the indicated plasmids; with or without 2DG (5 mM) and oligomycin (2.5 uM) for four hours; western blot
T2 sequence: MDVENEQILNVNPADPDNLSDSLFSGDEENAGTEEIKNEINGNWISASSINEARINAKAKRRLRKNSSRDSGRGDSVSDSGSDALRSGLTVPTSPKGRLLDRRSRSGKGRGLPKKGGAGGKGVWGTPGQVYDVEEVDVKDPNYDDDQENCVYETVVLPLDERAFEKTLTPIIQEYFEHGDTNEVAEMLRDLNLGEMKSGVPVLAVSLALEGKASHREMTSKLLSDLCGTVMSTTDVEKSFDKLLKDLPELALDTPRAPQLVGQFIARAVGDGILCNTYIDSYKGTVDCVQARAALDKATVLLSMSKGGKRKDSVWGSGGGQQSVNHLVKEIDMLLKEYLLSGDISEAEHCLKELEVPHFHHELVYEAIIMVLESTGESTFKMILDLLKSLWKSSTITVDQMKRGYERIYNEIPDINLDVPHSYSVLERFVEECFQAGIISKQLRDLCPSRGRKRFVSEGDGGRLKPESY

[3] = molecular target: T3, GFP-Atg7 (UniProt O95352); experiment: as above
T3 sequence: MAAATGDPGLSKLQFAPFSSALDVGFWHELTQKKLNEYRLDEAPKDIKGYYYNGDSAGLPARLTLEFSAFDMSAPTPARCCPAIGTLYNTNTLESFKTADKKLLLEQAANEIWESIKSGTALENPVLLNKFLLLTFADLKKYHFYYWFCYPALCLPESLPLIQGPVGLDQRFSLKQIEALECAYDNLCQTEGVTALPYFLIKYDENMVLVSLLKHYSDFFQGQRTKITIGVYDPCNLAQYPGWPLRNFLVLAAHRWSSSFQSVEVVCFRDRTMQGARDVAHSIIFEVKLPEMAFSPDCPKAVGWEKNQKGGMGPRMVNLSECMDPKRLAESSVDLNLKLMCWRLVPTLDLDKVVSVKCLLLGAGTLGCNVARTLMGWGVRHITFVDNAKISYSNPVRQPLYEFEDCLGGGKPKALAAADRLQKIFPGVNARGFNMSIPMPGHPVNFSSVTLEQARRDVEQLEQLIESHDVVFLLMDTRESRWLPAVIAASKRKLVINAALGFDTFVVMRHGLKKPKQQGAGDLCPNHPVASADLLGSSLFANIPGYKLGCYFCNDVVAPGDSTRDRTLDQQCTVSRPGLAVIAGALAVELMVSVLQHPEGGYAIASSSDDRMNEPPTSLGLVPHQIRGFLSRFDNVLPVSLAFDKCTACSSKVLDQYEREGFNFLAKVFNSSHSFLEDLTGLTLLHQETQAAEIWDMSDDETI

[4] = molecular target: T4, endogenous Atg7 (autophagy-related gene 7) (human (endogenous in HCT116)) (UniProt O95352); experiment: co-IP; endogenous proteins; IP lysis buffer (25 mM Tris pH 7.6, 150 mM NaCl, 1% Nonidet P-40, 1 mM EDTA), antibody 4 h, protein A/G agarose overnight, washed thrice with PBS, western blot; HCT116 also under serum starvation or 2DG (5 mM) and oligomycin (2.5 uM) for four hours; HEK293 Atg7-WT and Atg7-KO
T4 sequence: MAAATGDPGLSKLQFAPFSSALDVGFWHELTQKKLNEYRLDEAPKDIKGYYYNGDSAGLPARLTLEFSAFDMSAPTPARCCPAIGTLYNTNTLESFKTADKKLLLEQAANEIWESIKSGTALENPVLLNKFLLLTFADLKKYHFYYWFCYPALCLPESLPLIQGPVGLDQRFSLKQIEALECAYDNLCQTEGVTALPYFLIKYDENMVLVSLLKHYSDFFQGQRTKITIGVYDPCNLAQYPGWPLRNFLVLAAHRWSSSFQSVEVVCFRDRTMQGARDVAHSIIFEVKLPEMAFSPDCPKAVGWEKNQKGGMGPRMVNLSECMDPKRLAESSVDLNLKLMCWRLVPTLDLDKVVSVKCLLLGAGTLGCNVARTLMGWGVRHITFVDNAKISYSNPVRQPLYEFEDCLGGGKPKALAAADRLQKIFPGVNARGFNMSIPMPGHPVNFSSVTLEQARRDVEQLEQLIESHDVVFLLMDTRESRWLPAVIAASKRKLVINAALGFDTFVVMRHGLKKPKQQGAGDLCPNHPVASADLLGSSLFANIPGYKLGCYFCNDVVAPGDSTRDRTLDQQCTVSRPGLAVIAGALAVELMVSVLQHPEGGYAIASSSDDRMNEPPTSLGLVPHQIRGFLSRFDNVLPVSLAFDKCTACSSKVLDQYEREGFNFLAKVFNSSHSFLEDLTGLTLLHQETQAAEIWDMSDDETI

[5] = molecular target: T5, GST-fused Atg7 protein (UniProt O95352); experiment: pull-down; GST fusion protein on GST sepharose beads incubated with in vitro translated 3*Flag protein for four hours, washed thrice with PBS, western blot; only the target purified
T5 sequence: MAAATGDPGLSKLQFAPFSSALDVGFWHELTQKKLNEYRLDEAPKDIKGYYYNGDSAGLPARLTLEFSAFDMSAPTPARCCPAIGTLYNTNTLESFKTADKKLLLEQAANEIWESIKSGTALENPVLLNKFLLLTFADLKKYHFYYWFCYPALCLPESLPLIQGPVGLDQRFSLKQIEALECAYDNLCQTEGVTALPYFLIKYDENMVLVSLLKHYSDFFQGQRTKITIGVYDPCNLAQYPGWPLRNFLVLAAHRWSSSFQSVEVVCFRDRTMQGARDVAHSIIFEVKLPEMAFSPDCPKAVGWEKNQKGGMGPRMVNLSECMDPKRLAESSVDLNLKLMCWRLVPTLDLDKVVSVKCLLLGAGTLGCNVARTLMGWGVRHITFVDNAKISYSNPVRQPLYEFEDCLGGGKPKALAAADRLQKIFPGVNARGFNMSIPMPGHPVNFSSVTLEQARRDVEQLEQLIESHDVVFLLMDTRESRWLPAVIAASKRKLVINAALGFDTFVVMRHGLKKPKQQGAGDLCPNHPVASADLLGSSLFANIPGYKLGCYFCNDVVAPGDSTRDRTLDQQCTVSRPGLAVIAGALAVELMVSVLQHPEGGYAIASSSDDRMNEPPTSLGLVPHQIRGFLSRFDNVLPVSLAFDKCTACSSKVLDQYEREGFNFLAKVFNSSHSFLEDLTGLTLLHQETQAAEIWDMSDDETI

Molecule: endogenous AKT (from UniProt P31749 1-480) (enzyme)
- binding [1]: binds
- binding [2]: binds
- binding [3]: binds

B1: endogenous Programmed cell death 4 (PDCD4) (protein, UniProt Q53EL6 1-469)
chain: MDVENEQILNVNPADPDNLSDSLFSGDEENAGTEEIKNEINGNWISASSINEARINAKAKRRLRKNSSRDSGRGDSVSDSGSDALRSGLTVPTSPKGRLLDRRSRSGKGRGLPKKGGAGGKGVWGTPGQVYDVEEVDVKDPNYDDDQENCVYETVVLPLDERAFEKTLTPIIQEYFEHGDTNEVAEMLRDLNLGEMKSGVPVLAVSLALEGKASHREMTSKLLSDLCGTVMSTTDVEKSFDKLLKDLPELALDTPRAPQLVGQFIARAVGDGILCNTYIDSYKGTVDCVQARAALDKATVLLSMSKGGKRKDSVWGSGGGQQSVNHLVKEIDMLLKEYLLSGDISEAEHCLKELEVPHFHHELVYEAIIMVLESTGESTFKMILDLLKSLWKSSTITVDQMKRGYERIYNEIPDINLDVPHSYSVLERFVEECFQAGIISKQLRDLCPSRGRKRFVSEGDGGRLKPESY
- binding [4]: binds

B2: in vitro translated 3*Flag-PDCD4 (protein, UniProt Q53EL6 1-469)
chain: MDVENEQILNVNPADPDNLSDSLFSGDEENAGTEEIKNEINGNWISASSINEARINAKAKRRLRKNSSRDSGRGDSVSDSGSDALRSGLTVPTSPKGRLLDRRSRSGKGRGLPKKGGAGGKGVWGTPGQVYDVEEVDVKDPNYDDDQENCVYETVVLPLDERAFEKTLTPIIQEYFEHGDTNEVAEMLRDLNLGEMKSGVPVLAVSLALEGKASHREMTSKLLSDLCGTVMSTTDVEKSFDKLLKDLPELALDTPRAPQLVGQFIARAVGDGILCNTYIDSYKGTVDCVQARAALDKATVLLSMSKGGKRKDSVWGSGGGQQSVNHLVKEIDMLLKEYLLSGDISEAEHCLKELEVPHFHHELVYEAIIMVLESTGESTFKMILDLLKSLWKSSTITVDQMKRGYERIYNEIPDINLDVPHSYSVLERFVEECFQAGIISKQLRDLCPSRGRKRFVSEGDGGRLKPESY
- binding [5]: binds
